Data set [1] relates to PTBP1. Kind of data set: EMSA. Particulars: Kd only in figure, 600 nM is at least 10x Kd; EMSA: 50 mM Tris-HCl pH 7.5 (25 C), 100 mM KCl (or LiCl), 2.5 mM MgCl2, 0.1 mM ZnCl2, 2 mM 2-mercaptoethanol, 0.05 mg/ml BSA, 0.05 mg/ml yeast tRNA, 5% glycerol; recombinant protein; label: 32P.
In data set [2] the test system is PTBP1. Briefly: UV crosslinking. Particulars: efficient; recombinant protein; label: 32P.

Construct, isoform or probe ends are uncertain for at least one entry.

For the sequence “UCUUUCUUCUUUCUUCUUUCUUCUUUCUUCUUUCUUCUUUCU [(UCUUUCU)6]”, the binding result in the data set on PTBP1 [1] and with PTBP1 [2] was “binds” each time.

The record behind these values is PMC13316113.
